Measured values from patent publication US20240091292A1, “METHODS FOR TREATMENT OF HUMAN CANCERS USING CANNABIS COMPOSITIONS” (Apollon Formularies PLC, priority 2021, published 2024).

Columns and labels:
Type in all cases: cell-based
[1] = test system: NCI-H460; assay: 3D Cell Proliferation Screen, NCI-H460; settings: Homo sapiens, 120 h; NCI-H460 lung spheroids, 5 days; positive control
Procedure: (§1) Experimental Methods: 3D Cell Proliferation Assay
(§2) Cells were seeded at 1000 cells/well in media in 384-well Corning® Spheroid microplates. The microplates were incubated at 37 C in 5% CO2 incubator to allow for spheroid formation.
(§3) Aliquots of each sample were vortexed and centrifuged at 3,000 rpm (800 g) for 5 minutes at room temperature. Supernatants (500-fold stocks) were stored under sterile conditions at 4 C.
(§4) On the day of the assay, a 9-point dose-response of each 500-fold stock was prepared and added to the spheroid plates to provide final assay concentrations ranging from 1e-04 to 1-fold, in 0.2% DMSO. Final assay conditions for each sample are shown on Table 1.
(§5) Assay plates were incubated at 37 C in an atmosphere containing 5% CO2 for 5 days. Staurosporine, a compound known to induce cellular apotosis, was used a positive control for terminated cell proliferation. Cell viability was determined at 5 days post-compound addition. Briefly, 3D-CellTiter Glow™ reagent (Promega) was added to assay plates per the manufacturer's recommendations. Plates were shaken until spheroids were lysed and luminescence was read at room temperature.
(§6) Cell proliferation end point was analyzed as Percent of Control (POC) using the following formula: […]
(§7) EC50, IC50 and GI50 values were calculated using nonlinear regression to fit data to a sigmoidal 4-point, 4-parameter log-logistic dose response model: […]

[2] = test system: BT-474; assay: 3D Cell Proliferation Screen, BT-474; settings: Homo sapiens, 120 h; BT-474 breast spheroids, 5 days; positive control
Procedure: as §1, §2, §3, §4, §5, §6, §7

[3] = test system: PC-3; assay: 3D Cell Proliferation Screen, PC-3; settings: Homo sapiens, 120 h; PC-3 prostate spheroids, 5 days; positive control
Procedure: as §1, §2, §3, §4, §5, §6, §7

[4] = test system: A-549; assay: 3D Cell Proliferation Screen, A-549; settings: Homo sapiens, A549, 120 h; A-549 lung spheroids, 5 days; positive control
Procedure: as §1, §2, §3, §4, §5, §6, §7

[5] = test system: MDA-MB-231; assay: 3D Cell Proliferation Screen, MDA-MB-231; settings: Homo sapiens, 120 h, MDA-MB-231 breast spheroids, 5 days, positive control
Procedure: as §1, §2, §3, §4, §5, §6
A relative cell count EC50 is the concentration of the test compound that produces a response half-way between the maximum and baseline. Relative cell count IC50 is the concentration of the test compound that produces 50% of the cell proliferation inhibitory response or 50% cytotoxicity level. GI50 is the concentration of the test compound that produces 50% reduction in proliferation of cancer cells relative to T0. The output of each biomarker is fold-increase over vehicle control background normalized to the relative cell count in each well.
EC50, IC50 and GI50 values were calculated using nonlinear regression to fit data to a sigmoidal 4-point, 4-parameter log-logistic dose response model:
Curve-fitting and EC50 calculations were performed using the R statistical software package with R's drc library.

[6] = test system: A-431; assay: 3D Cell Proliferation Screen, A-431; settings: Homo sapiens, 120 h; A-431 skin spheroids, 5 days; positive control
Procedure: as §1, §2, §3, §4, §5, §6, §7

[7] = test system: 22Rv-1; assay: 3D Cell Proliferation Screen, 22Rv-1; settings: Homo sapiens, 22Rv1, 120 h; 22Rv-1 prostate spheroids, 5 days; positive control
Procedure: as §1, §2, §3, §4, §5, §6, §7

CN[C@@H]1C[C@H]2O[C@@](C)([C@@H]1OC)n1c3ccccc3c3c4c(c5c6ccccc6n2c5c31)C(=O)NC4 [Staurosporine]
EC50 [1]: 20 nM | IC50 [1]: 21 nM | EC50 [2]: 44 nM | IC50 [2]: 44 nM | EC50 [3]: 2 nM | IC50 [4]: 20 nM | EC50 [5]: 1 nM | IC50 [5]: 1 nM | GI50 ([5]; relative to T0): 1 nM | EC50 [6]: 1 nM | IC50 [6]: 1 nM | EC50 [7]: 19 nM | IC50 [7]: 20 nM
